Results are given in words; binding and its absence hold for the method and conditions named. In cells and extracts the contact can be indirect. Here binding means that the protein was enriched with, or labelled near, the bait; the list need not be complete. Where a sequence is shown, tags or fusion partners need not be part of it.

Consider three molecules from paper PMC11490714.

T1: FLAG-RBM39 (human) (UniProt Q14498)
T1 sequence: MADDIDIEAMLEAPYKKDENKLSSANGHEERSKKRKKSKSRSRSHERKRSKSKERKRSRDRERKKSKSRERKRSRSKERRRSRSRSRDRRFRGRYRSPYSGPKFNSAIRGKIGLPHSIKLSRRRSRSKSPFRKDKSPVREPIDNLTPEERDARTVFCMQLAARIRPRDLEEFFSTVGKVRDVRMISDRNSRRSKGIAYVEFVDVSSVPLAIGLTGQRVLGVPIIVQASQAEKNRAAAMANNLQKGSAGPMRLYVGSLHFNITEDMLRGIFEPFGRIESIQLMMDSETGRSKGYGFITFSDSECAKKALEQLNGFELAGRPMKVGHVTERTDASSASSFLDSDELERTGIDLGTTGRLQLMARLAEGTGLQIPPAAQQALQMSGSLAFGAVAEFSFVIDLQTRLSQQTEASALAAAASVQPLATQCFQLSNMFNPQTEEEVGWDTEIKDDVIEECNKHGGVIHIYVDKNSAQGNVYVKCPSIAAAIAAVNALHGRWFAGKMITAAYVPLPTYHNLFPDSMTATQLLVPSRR

B1: FBXW4 (protein, UniProt P57775 1-412)
chain: MAAAAGEEEEEEEAARESAARPAAGPALWRLPEELLLLICSYLDMRALGRLAQVCRWLRRFTSCDLLWRRIARASLNSGFTRLGTDLMTSVPVKERVKVSQNWRLGRCREGILLKWRCSQMPWMQLEDDSLYISQANFILAYQFRPDGASLNRRPLGVFAGHDEDVCHFVLANSHIVSAGGDGKIGIHKIHSTFTVKYSAHEQEVNCVDCKGGIIVSGSRDRTAKVWPLASGRLGQCLHTIQTEDRVWSIAISPLLSSFVTGTACCGHFSPLRIWDLNSGQLMTHLGSDFPPGAGVLDVMYESPFTLLSCGYDTYVRYWDLRTSVRKCVMEWEEPHDSTLYCLQTDGNHLLATGSSYYGVVRLWDRRQRACLHAFPLTSTPLSSPVYCLRLTTKHLYAALSYNLHVLDFQNP
B2: METTL25 (enzyme, UniProt Q8N6Q8 1-603)
chain: MAASCPLPVTPDLPTLRAKLQGLLQFLRDALSISNAHTVDFYTESVWEELVDLPPETVLAALRKSASETEALPSETRPLVEAEWEAGMTDFPKIFCETSQKLVSVEAFALAAKYYSVQNLGICTPFEQLLVALRGNQNQRIGENQKAVEFMNMKKSHEVQAMSELISSIADYYGIKQVIDLGSGKGYLSSFLSLKYGLKVYGIDSSNTNTHGAEERNRKLKKHWKLCHAQSRLDVNGLALKMAKERKVQNKVKNKADTEEVFNNSPTNQEKMPTSAILPDFSGSVISNIRNQMETLHSQPHQEENLCFENSFSLINLLPINAVEPTSSQQIPNRETSEANKERRKMTSKSSESNIYSPLTSFITADSELHDIIKDLEDCLMVGLHTCGDLAPNTLRIFTSNSEIKGVCSVGCCYHLLSEEFENQHKERTQEKWGFPMCHYLKEERWCCGRNARMSACLALERVAAGQGLPTESLFYRAVLQDIIKDCYGITKCDRHVGKIYSKCSSFLDYVRRSLKKLGLDESKLPEKIIMNYYEKYKPRMNELEAFNMLKVVLAPCIETLILLDRLCYLKEQEDIAWSALVKLFDPVKSPRCYAVIALKKQQ
B3: UHRF1 (enzyme, UniProt Q96T88 1-793)
chain: MWIQVRTMDGRQTHTVDSLSRLTKVEELRRKIQELFHVEPGLQRLFYRGKQMEDGHTLFDYEVRLNDTIQLLVRQSLVLPHSTKERDSELSDTDSGCCLGQSESDKSSTHGEAAAETDSRPADEDMWDETELGLYKVNEYVDARDTNMGAWFEAQVVRVTRKAPSRDEPCSSTSRPALEEDVIYHVKYDDYPENGVVQMNSRDVRARARTIIKWQDLEVGQVVMLNYNPDNPKERGFWYDAEISRKRETRTARELYANVVLGDDSLNDCRIIFVDEVFKIERPGEGSPMVDNPMRRKSGPSCKHCKDDVNRLCRVCACHLCGGRQDPDKQLMCDECDMAFHIYCLDPPLSSVPSEDEWYCPECRNDASEVVLAGERLRESKKKAKMASATSSSQRDWGKGMACVGRTKECTIVPSNHYGPIPGIPVGTMWRFRVQVSESGVHRPHVAGIHGRSNDGAYSLVLAGGYEDDVDHGNFFTYTGSGGRDLSGNKRTAEQSCDQKLTNTNRALALNCFAPINDQEGAEAKDWRSGKPVRVVRNVKGGKNSKYAPAEGNRYDGIYKVVKYWPEKGKSGFLVWRYLLRRDDDEPGPWTKEGKDRIKKLGLTMQYPEGYLEALANREREKENSKREEEEQQEGGFASPRTGKGKWKRKSAGGGPSRAGSPRRTSKKTKVEPYSLTAQQSSLIREDKSNAKLWNEVLASLKDRPASGSPFQLFLSKVEETFQCICCQELVFRPITTVCQHNVCKDCLDRSFRAQVFSCPACRYDLGRSYAMQVNQPLQTVLNQLFPGYGNGR

For the assay, the target named is T1, FLAG-RBM39 (human). In words: affinity purification with mass spectrometry; HEK293T transfected with pcDNA3.1 or FLAG-RBM39 for 48 h, lysed in modified radioimmunoprecipitation assay buffer; anti-FLAG affinity gel; SDS-PAGE, in-gel trypsin digest, label-free quantification, three biological replicates.
In the case of B1, the binding entry is reported as “binds”.

Turning to B2, the binding entry is “binds”.

Take B3: the binding result is listed as “binds”.
